# Experimental data reported in PMC9449696.
# Results are given in words; binding and its absence hold for the method and conditions named. Binding seen in cells or lysates may run through a third protein. Some binding calls cover weakened binding; strength is not graded here. For some of these results: Sequences can lack the tags named with a protein.
# B1: Protein disulfide isomerase A6 (PDIA6), endogenous (protein, UniProt Q63081 20-440)
# chain: LYSSSDDVIELTPSNFNREVIQSDSLWLVEFYAPWCGHCQRLTPEWKKAASALKDVVKVGAVNADKHQSLGGQYGVQGFPTIKIFGANKNKPEDYQGGRTGEAIVDAALSALRQLVKDRLGGRSGGYSSGKQGRGDSSSKKDVVELTDDTFDKNVLDSEDVWMVEFYAPWCGHCKNLEPEWAAAATEVKEQTKGKVKLAAVDATVNQVLASRYGIKGFPTIKIFQKGESPVDYDGGRTRSDIVSRALDLFSDNAPPPELLEIINEDIAKKTCEEHQLCVVAVLPHILDTGATGRNSYLEVLLKLADKYKKKMWGWLWTEAGAQYELENALGIGGFGYPAMAAINARKMKFALLKGSFSEQGINEFLRELSFGRGSTAPVGGGSFPNITPREPWDGKDGELPVEDDIDLSDVELDDLEKDEL
# B2: spastin, endogenous (protein, UniProt B2RYN7 1-581)
# chain: MSSPAGRRKKKGSGGASPAPARPPPPAAVPAPAAGPAPAPGSPHKRNLYYFSYPLVVGFALLRLLACHLGLLFVWLCQRFSRALMAAKRSSGTAPAPASPSTPAPGPGGEAESVRVFHKQAFEYISIALRIDEEEKGQKEQAVEWYKKGIEELEKGIAVIVTGQGEQYERARRLQAKMMTNLVMAKDRLQLLESGAVPKKKDPLTHASNSLPRSKTVMKSGSTGLSGHHRAPSCSGLSMVSGARPGSGPAATTHKGTSKPNRTNKPSTPTTAVRKKKDLKNFRNVDSNLANLIMNEIVDNGTAVKFDDIAGQELAKQALQEIVILPSLRPELFTGLRAPARGLLLFGPPGNGKTMLAKAVAAESNATFFNISAASLTSKYVGEGEKLVRALFAVARELQPSIIFIDEVDSLLCERREGEHDASRRLKTEFLIEFDGVQSAGDDRVLVMGATNRPQELDEAVLRRFIKRVYVSLPNEETRLLLLKNLLCKQGSPLTQKELAQLARMTDGYSGSDLTALAKDAALGPIRELKPEQVKNMSASEMRNIRLSDFTESLKKIKRSVSPQTLEAYIRWNKDFGDTTV
# B3: Flag-PDIA6 (protein, UniProt Q63081 20-440)
# chain: B1 chain
# Tests used:
# [1] = target: T1, spastin, endogenous (rat (endogenous in brain)) (UniProt B2RYN7); assay: co-IP; rat brain lysates; immunoprecipitation with anti-spastin; blots with anti-spastin and anti-PDIA6
# T1 sequence: B2 chain
# GST-Spastin = target: T2, GST-Spastin (UniProt B2RYN7); assay: pull-down; GST-Spastin or GST-PDIA6 on beads combined with rat brain lysates; incubated overnight at 4°C; detection by Western immunoblotting; only the target purified
# T2 sequence: B2 chain
# GST-PDIA6 = target: T3, GST-PDIA6 (UniProt Q63081); assay: as above
# T3 sequence: B1 chain
# GFP-Spastin = target: T4, GFP-Spastin (UniProt B2RYN7); assay: co-IP; COS-7 cells co-transfected with Flag-PDIA6 and GFP-Spastin; immunoprecipitation with GFP- and Flag-specific antibodies; Western immunoblotting
# T4 sequence: B2 chain
binder,measurement,setting,value
B1,binding,[1],binds
same,binding,GST-Spastin,binds
B2,binding,GST-PDIA6,binds
B3,binding,GFP-Spastin,binds
